From PMC7819943, “Rice protein-binding microarrays: a tool to detect cis-acting elements near promoter regions in rice”
Some of the results follow.

Target: T1, OsSMF1 (Oryza sativa, UniProt Q6ZLB0 1-436)
T1 sequence: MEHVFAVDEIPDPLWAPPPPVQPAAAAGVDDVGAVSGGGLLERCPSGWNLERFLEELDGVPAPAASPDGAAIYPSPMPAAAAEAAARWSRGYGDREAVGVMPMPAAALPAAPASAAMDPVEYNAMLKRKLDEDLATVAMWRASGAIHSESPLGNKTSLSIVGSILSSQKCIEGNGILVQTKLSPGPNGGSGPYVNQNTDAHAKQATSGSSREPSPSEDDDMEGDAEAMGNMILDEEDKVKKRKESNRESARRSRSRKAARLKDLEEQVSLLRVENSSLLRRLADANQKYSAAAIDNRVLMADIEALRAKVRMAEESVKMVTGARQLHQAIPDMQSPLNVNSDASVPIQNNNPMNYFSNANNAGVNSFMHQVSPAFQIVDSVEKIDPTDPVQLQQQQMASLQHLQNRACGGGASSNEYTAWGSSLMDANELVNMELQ
Assay: protein-binding microarray (RPBM); PBS, 2% BSA, 51.3 ng/ul salmon testes DNA, 50 uM zinc acetate, 200 nM TF, 25 C, 1 h; high values mean tight binding
Conditions: protein: recombinant; tags: N-terminal polyhistidine and DsRed monomer fusion (pET32a); chain copies: 2; label: CyDye5-dUTP incorporated in the synthesized complementary strand; 3' TTTTT single-stranded linker to array surface; dsDNA, one strand shown
In short: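 Per-feature fluorescence intensity (arbitrary units), read on an Axon 4000B scanner, is the binding signal. Transcription factors carrying an N-terminal polyhistidine tag and DsRed fusion were expressed in E. coli BL21-CodonPlus and purified on Ni–NTA. A custom Agilent array, made double-stranded by primer extension with Cy5-dUTP and blocked with 2% BSA, was incubated with 200 nM protein in PBS, 2% BSA, salmon testes DNA and 50 µM zinc acetate at 25 °C for 1 h and then washed.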

With “TTTCTCGGGTCATCAGTCCAAGTCATCTCACATGGTGGAGCGGAGTCACCTAGTGCAG” as the sequence, how does the binding signal read?
Its binding signal is 6770 fluorescence intensity (a.u.).

How did the binding signal turn out when “AATTCCAAAGTGAAATTCATATTAGCTAAACCGTATAACACGGAGTCACCTAGTGCAG” was run?
Its binding signal is 3540 fluorescence intensity (a.u.).

For “GGCCGGCGCTATCATGCCACCGGGGTTTCCGACTTTCCCTCGGAGTCACCTAGTGCAG”, which binding signal is on record?
The binding signal was 23300 fluorescence intensity (a.u.).

With “TCGAAACGTGGCTGAGTCATCGATTGACCTTATCCAGTAGCGGAGTCACCTAGTGCAG” as the sequence, how does the binding signal read?
The binding signal was 13200 fluorescence intensity (a.u.).

“ATTTCTCACTGTCGTGACATGAGAATTTCAGCAAGGAAGGCGGAGTCACCTAGTGCAG” was tested. Which binding signal did it give?
Its binding signal is 11000 fluorescence intensity (a.u.).

“ATTTCACCACCACCGCCACGGCCTCTGCCTCTCGCTCTCTCGGAGTCACCTAGTGCAG” was tested. Which binding signal did it give?
Its binding signal is 3200 fluorescence intensity (a.u.).

With “CTTGATTACCCCGTAGTCAGGTTTGTATGACTAAGCAACCCGGAGTCACCTAGTGCAG” as the sequence, how does the binding signal read?
The binding signal was 4650 fluorescence intensity (a.u.).

For “TCGGAGAGGGCGCGGTGGGAGAGGTTGAGCGACGTGGCGACGGAGTCACCTAGTGCAG”, which binding signal is on record?
Its binding signal is 5290 fluorescence intensity (a.u.).

With “ATAACTTGCCATGCCGCATTCTCTTTGAACTCGGTCTCTTCGGAGTCACCTAGTGCAG” as the sequence, how does the binding signal read?
The binding signal was 17400 fluorescence intensity (a.u.).

With “CGGTCCATGCTTGCTCAGCATGATCCTGATCTCTTCTGCACGGAGTCACCTAGTGCAG” as the sequence, how does the binding signal read?
The binding signal was 3960 fluorescence intensity (a.u.).

“CCTGCTTCCCTCACCAATGACGCCGCTCCCCATACCCCTTCGGAGTCACCTAGTGCAG” was tested. Which binding signal did it give?
The binding signal was 4940 fluorescence intensity (a.u.).

“GAACAGTGACTCAAATTAAGGATGAGAAATGGGTGGATCACGGAGTCACCTAGTGCAG” was tested. Which binding signal did it give?
The binding signal was 29100 fluorescence intensity (a.u.).

For “GCGGCGGCGGAGCATCGGGCCCCTTCGGCTTCAGATCCGGCGGAGTCACCTAGTGCAG”, which binding signal is on record?
Its binding signal is 3420 fluorescence intensity (a.u.).

Which binding signal does the source give for “AATCTTTTGATACTAATTAAGCCGTCATTAGCACATGTGGCGGAGTCACCTAGTGCAG” here?
The binding signal was 3240 fluorescence intensity (a.u.).

Which binding signal does the source give for “CTTGTTGGTAACCAAGCATGACAAGACACTGCTTGGCCTCCGGAGTCACCTAGTGCAG” here?
Its binding signal is 4330 fluorescence intensity (a.u.).

For “CTGCAATCGCACCATCATCGCTCCTCTGGCCATGATCCGTCGGAGTCACCTAGTGCAG”, which binding signal is on record?
Its binding signal is 3140 fluorescence intensity (a.u.).

With “ATCGATCCCTACCTACGAGGCTTAGGCCCATTAGCCCAAACGGAGTCACCTAGTGCAG” as the sequence, how does the binding signal read?
The binding signal was 38800 fluorescence intensity (a.u.).

How did the binding signal turn out when “CACTCCCATTCCCATCCTCCACATCCCGCGCCATCGACCTCGGAGTCACCTAGTGCAG” was run?
Its binding signal is 3400 fluorescence intensity (a.u.).

Which binding signal does the source give for “AAGTTGTATGTTATAAACGGTAAAGGAAGACAAGTCATACCGGAGTCACCTAGTGCAG” here?
Its binding signal is 3270 fluorescence intensity (a.u.).

With “CCATGGCACCTCCTCCTACGCCAGCACCGCTGCCGTGATGCGGAGTCACCTAGTGCAG” as the sequence, how does the binding signal read?
The binding signal was 4800 fluorescence intensity (a.u.).

“GAATTCAATATGCGGGTTCAGATAGATGAGTGGGCACTTTCGGAGTCACCTAGTGCAG” was tested. Which binding signal did it give?
Its binding signal is 3330 fluorescence intensity (a.u.).

With “CTCTCGTCGTCTCGTTCATCCCCGGGCTGGCATCGCAGGACGGAGTCACCTAGTGCAG” as the sequence, how does the binding signal read?
Its binding signal is 3270 fluorescence intensity (a.u.).

How did the binding signal turn out when “CACTACGTGCCATGGATGGATGCTCTACCGGGCGAAGCTACGGAGTCACCTAGTGCAG” was run?
Its binding signal is 25800 fluorescence intensity (a.u.).

For “TCTCTCTCTCTCTCGCCATCGTCACTGCGGCTGCTGCTGCCGGAGTCACCTAGTGCAG”, which binding signal is on record?
The binding signal was 3810 fluorescence intensity (a.u.).

“GATCTGGCAGGTCCTCGTGATCTGCTCCCTCAGCTCGTCCCGGAGTCACCTAGTGCAG” was tested. Which binding signal did it give?
The binding signal was 22900 fluorescence intensity (a.u.).

With “GAGGGAGTCAAAGTGGGTTTACTCCACCTACGAATCCAATCGGAGTCACCTAGTGCAG” as the sequence, how does the binding signal read?
The binding signal was 4940 fluorescence intensity (a.u.).

For “GGCCGAAGCAGTGGTTTTCAAGTTGCGCCAACACATCGTCCGGAGTCACCTAGTGCAG”, which binding signal is on record?
The binding signal was 3610 fluorescence intensity (a.u.).

For “TTGTGTGTTGTAGTGGTGAGTGGTGTTTTGATGGTTTCTGCGGAGTCACCTAGTGCAG”, which binding signal is on record?
Its binding signal is 4280 fluorescence intensity (a.u.).

For “CGGGCCAAAATTATTCAGATCCCACGTGTCAGCTCACGGGCGGAGTCACCTAGTGCAG”, which binding signal is on record?
Its binding signal is 10100 fluorescence intensity (a.u.).

How did the binding signal turn out when “CTTGACTAGCTGACTGTTCTTACAAGTGACATCAGTCGAGCGGAGTCACCTAGTGCAG” was run?
Its binding signal is 4110 fluorescence intensity (a.u.).

Which binding signal does the source give for “CTCACATACGCTTGTTAACCCTTTCTTTCACGTGATGACTCGGAGTCACCTAGTGCAG” here?
The binding signal was 4410 fluorescence intensity (a.u.).

Which binding signal does the source give for “TAGCTAAACAGATCTAATCCCCTTCTTTCTCCCCAATCCTCGGAGTCACCTAGTGCAG” here?
The binding signal was 37500 fluorescence intensity (a.u.).

How did the binding signal turn out when “GCTGTCGATAGGTATCTCGTCTACCACTGAAAGAATAATTCGGAGTCACCTAGTGCAG” was run?
Its binding signal is 4560 fluorescence intensity (a.u.).

Which binding signal does the source give for “TTTCACCAGTGGCGCGACGCGATCCGCGTCAGGCGCATCTCGGAGTCACCTAGTGCAG” here?
Its binding signal is 3260 fluorescence intensity (a.u.).

For “AAATAAAATACTGACTGGAATGCCACGCGTATGTCACGTACGGAGTCACCTAGTGCAG”, which binding signal is on record?
Its binding signal is 9370 fluorescence intensity (a.u.).

Which binding signal does the source give for “ATTTAAACTACCTTTTCATTGACACATGCACTCTCACCGACGGAGTCACCTAGTGCAG” here?
The binding signal was 3580 fluorescence intensity (a.u.).

Which binding signal does the source give for “ATATAATTTGCTTTAAAGTGAATATGTTATCACCGCAGATCGGAGTCACCTAGTGCAG” here?
The binding signal was 3490 fluorescence intensity (a.u.).

Which binding signal does the source give for “ACGATTCGCTGCTCGCCGGCCTCCGCCGCGGGCGCCGCGACGGAGTCACCTAGTGCAG” here?
The binding signal was 3560 fluorescence intensity (a.u.).

Which binding signal does the source give for “CGGCGACGGCCTCCCGCACCTTCGCCTTCCACGCCACCGACGGAGTCACCTAGTGCAG” here?
The binding signal was 3900 fluorescence intensity (a.u.).

“TCCTTCTCTGACTCTGTCTTGGCCATCCTATTCCTAGCTCCGGAGTCACCTAGTGCAG” was tested. Which binding signal did it give?
The binding signal was 29000 fluorescence intensity (a.u.).

“AGTTTGTGTTTGTCACGTCGCAGTTTTCGTTAGTGTTTTGCGGAGTCACCTAGTGCAG” was tested. Which binding signal did it give?
The binding signal was 3580 fluorescence intensity (a.u.).

With “ACCTCGCAGTCGCATCGTCATCGCGGGCGGCCGCCTCGGCCGGAGTCACCTAGTGCAG” as the sequence, how does the binding signal read?
The binding signal was 4760 fluorescence intensity (a.u.).
